Reference: PubChem BioAssay AID504804 (Drosophila RNAi Screening Center, 2011)
Test: 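Knock-downs shielding fly cells from apoptosis caused by DNA damage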 (primary screen). System: Drosophila Kc cells. Knock-down reagent: long dsRNA against Drosophila genes, 0.5 µg dsRNA per well. Timing: 96 h (48 h knock-down, then 48 h drug). Conditions: doxorubicin 5 µg/ml for 48 h, added 48 h after dsRNA. Detection: 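Luminescent ATP counts per replicate, not normalised, reflecting viable cells after 48 h dsRNA knock-down followed by 48 h of 5 µg/ml doxorubicin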. Direction: raw ATP luminescence: higher = more viable cells, protection from doxorubicin. Active means: 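z-score of 2 or more over plate mean in both duplicates, retained only when retests and separate dsRNAs confirm the protection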.
The screen tested about 19,000 reagents; below is an unselected part of those with a known target gene and a result. Over the whole deposit, 47 (0.25%) got an active call. 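Signals are raw, not normalised; exact z-scores behind calls not deposited; actives needed confirmation, so some wells reaching 2 SD are inactive.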 Names joined by + are all predicted targets of the reagent.

no.	Target gene	DRSC id	SD above plate mean	raw ATP luminescence, replicate 1	raw ATP luminescence, replicate 2	activity call
1	CG13643	DRSC14641		45270	52550	inactive
2	CG13643	DRSC14642		46670	48800	inactive
3	CG1077	DRSC12146		61100	63303	inactive
4	CG10934	DRSC06017		61110	56647	inactive
5	CG31815	DRSC01548		3.08e5	2.32e5	inactive
6	CG33998	DRSC05747		2.01e5	1.66e5	inactive
7	CG13044	DRSC09925		35937	27143	inactive
8	natalisin	DRSC14966		29210	29490	inactive
9	natalisin	DRSC14967		55050	66180	inactive
10	Cnep1r2 (CTD nuclear envelope phosphatase 1 regulatory subunit 2)	DRSC10950		29753	41337	inactive
11	Cftr (CF transmembrane conductance regulator)	DRSC15872		42670	40943	inactive
12	ImpE3 (Ecdysone-inducible gene E3)	DRSC16716		52277	61160	inactive
13	CG12470	DRSC18620		48120	37740	inactive
14	Polr3F (RNA polymerase III subunit F)	DRSC15785		71980	54460	inactive
15	CG11777	DRSC06081		42810	77487	inactive
16	Tmtc1 (Transmembrane O-mannosyltransferase targeting cadherins 1)	DRSC00147		3.11e5	3.20e5	inactive
17	Tmtc1 (Transmembrane O-mannosyltransferase targeting cadherins 1)	DRSC00151		2.94e5	3.32e5	inactive
18	GC2	DRSC14476		53083	50500	inactive
19	CR16735 (pseudo)	DRSC15144		55363	49817	inactive
20	Ir76a (Ionotropic receptor 76a)	DRSC10987		23230	19033	inactive
21	CG14731	DRSC14952		51970	53693	inactive
22	CG17168	DRSC20904		2.48e5	2.58e5	inactive
23	Gmer (GDP-4-keto-6-deoxy-D-mannose 3,5-epimerase/4-reductase)	DRSC04376		77697	53363	inactive
24	Jon99Cii (Jonah 99Cii)	DRSC16858		54590	38190	inactive
25	CG12116	DRSC17812		39010	51250	inactive
26	a10 (antennal protein 10)	DRSC11319	2 to 3 SD above plate mean	1.12e5	92410	active
27	Acbp2 (Acyl-CoA binding protein 2)	DRSC11141		61557	65147	inactive
28	CG14434	DRSC17927		42230	54900	inactive
29	dl (dorsal)	DRSC03520		91040	88803	inactive
30	dl (dorsal)	DRSC03521		69330	81030	inactive
31	tzn (tenzing norgay)	DRSC11755		31360	39493	inactive
32	CG32198	DRSC09553		60257	70653	inactive
33	Vsp37A (Vacuolar protein sorting 37A)	DRSC18794		41390	50660	inactive
34	CG7182	DRSC10780		36203	44033	inactive
35	CG9706	DRSC11095		23623	21933	inactive
36	CG8180	DRSC07092		71523	71063	inactive
37	mib1 (mind bomb 1)	DRSC10550		74483	62480	inactive

Copied from the list:
Value for Ir76a (Ionotropic receptor 76a) [DRSC10987] under “activity call”: inactive
Under “activity call”, CG12116 [DRSC17812] has inactive
Entry for a10 (antennal protein 10) [DRSC11319] in “activity call”: active
Under “raw ATP luminescence, replicate 1”, natalisin [DRSC14967] reads 55050

Continued:
no.	Target gene	DRSC id	SD above plate mean	raw ATP luminescence, replicate 1	raw ATP luminescence, replicate 2	activity call
38	CG6195	DRSC15989		58760	83660	inactive
39	CG8586	DRSC07218		64800	49963	inactive
40	prc (pericardin)	DRSC11385		91403	1.42e5	inactive
41	Trax (Translin associated factor X)	DRSC15709		56217	35303	inactive
42	Rad51D (Rad51 recombinase D)	DRSC06840		56593	74163	inactive
43	Sr-CI (Scavenger receptor class C, type I)	DRSC00790		1.65e5	2.23e5	inactive
44	Hsp70Aa + Hsp70Bb + Hsp70Ba + 3 more	DRSC15380		54680	36117	inactive
45	CG18568	DRSC06768		53497	49337	inactive
46	CSN4 (COP9 signalosome subunit 4)	DRSC07350		27627	55223	inactive
47	Or74a (Odorant receptor 74a)	DRSC11245		35483	32350	inactive
48	TTLL4B (Tubulin tyrosine ligase-like 4B)	DRSC00636		83977	63703	inactive
49	gbb (glass bottom boat)	DRSC04687		58583	45290	inactive
50	CG31111	DRSC14649		41510	35630	inactive
51	CG3008	DRSC00560		33383	46643	inactive
52	Myd88	DRSC06815		62507	71000	inactive
53	sphinx1	DRSC10993		82300	93903	inactive
54	eIF2gamma (eukaryotic translation initiation factor 2 subunit gamma)	DRSC13081		1.04e5	1.01e5	inactive
55	eIF2gamma (eukaryotic translation initiation factor 2 subunit gamma)	DRSC16873		58750	29587	inactive
56	RpS16 (Ribosomal protein S16)	DRSC04442		28083	28923	inactive
57	Vm26Aa (Vitelline membrane 26Aa)	DRSC03472		20280	29633	inactive
58	CG8132	DRSC16383		62010	43500	inactive
59	Yp1 (Yolk protein 1)	DRSC18731		3.08e5	3.22e5	inactive
60	Lrch (Leucine-rich-repeats and calponin homology domain protein)	DRSC02996		81127	77787	inactive
61	btsz (bitesize)	DRSC14982		35110	30560	inactive
62	btsz (bitesize)	DRSC16231		74810	74070	inactive
63	Syt4 (Synaptotagmin 4)	DRSC12606		61133	54120	inactive
64	Acp36DE (Accessory gland protein 36DE)	DRSC01860		59620	74667	inactive
65	CG31368	DRSC14949		49620	46170	inactive
66	CG31368	DRSC14951		58017	30883	inactive
67	CG1409	DRSC17910		37150	38540	inactive
68	Tudor-SN (Tudor staphylococcal nuclease)	DRSC08581		61877	48740	inactive
69	TotM (Turandot M)	DRSC02355		24773	26387	inactive
70	CG4363	DRSC04465		76333	65353	inactive
71	beag	DRSC15296		46280	19507	inactive
72	CG13380 + CG4174	DRSC09988	at least 3 SD above plate mean	49700	47243	active
73	CG13380 + CG4174	DRSC10406		37073	37147	inactive
74	Gr59f (Gustatory receptor 59f)	DRSC04499		45940	52517	inactive
75	CG5151	DRSC10487		33523	30417	inactive
76	Rpt6R (Regulatory particle triple-A ATPase 6-related)	DRSC15431		52770	42430	inactive
77	Spn42De (Serpin 42De)	DRSC05011		52773	72357	inactive
78	beta3GalTII (beta-1,3-Galactosyltransferase II)	DRSC07253		46147	89377	inactive
79	CG42269	DRSC10670		87427	93557	inactive
80	CG42269	DRSC10672		73623	85493	inactive
81	CG34200	DRSC04804		87213	94897	inactive
82	Ir8a (Ionotropic receptor 8a)	DRSC17817		2.96e5	3.41e5	inactive
83	Ir8a (Ionotropic receptor 8a)	DRSC17869		3.63e5	3.55e5	inactive
84	CG34011	DRSC00888		2.97e5	2.87e5	inactive
